# Results: patent US20240041832A1, “METHODS AND COMPOSITIONS FOR TREATING EYE DISEASES” (JENIVISION INC., priority 2021, published 2024)
# The name of at least one read-out is uncertain.
# Assay: Biodistribution of DHA after periorbital skin administration (Example 4)
# Type: in vivo, cynomolgus monkeys
# Details: post-dose
# Method: This is supported by results obtained with a markedly different compound docosahexaenoic acid (DHA), which are shown in Table 2. An oil solution comprising 14.85 mg/mL β-Carotene+198.02 mg/ml DHA in linoleic acid was administered to one eye (OD) by circumferential topical application to the periorbital skin that surrounds the anterior portion of the globe. Blood samples (1 mL) and were collected at 0, 0.5, 2, 6, and 24 hours after a single administration to the periorbital skin of the right eye (OD) At each of the above pre-designated time points, one animal was euthanized after blood collection and selected eye tissue samples were collected from both eyes. The following representative tissues were collected; upper eyelid, cornea, retina, and vitreous humor. DHA concentrations in the samples were determined by the LC-MS/MS method. The DHA was administered via NIODP at the dose of 6775.1±92.5 μg per eye (mean±SEM), to the left eye of monkeys in the pharmacokinetics and biodistribution study. Again, for convenience of sample processing, only upper eyelids were collected. Substantial quantities of DHA (>10 μg/g) remained in the upper eyelid/periorbital region, retina, and cornea, at all tested time points of 0.5, 3, 6 and 24-hour post dosing. […] Compared to the BLQ baseline, plasma concentrations of DHA were between 1.2 and 3.1 μg/ml, equivalent to 3.65 and 9.4 mM (MW 328.5) via NIODP. […]
smiles,measurement,value
"CC/C=C\C/C=C\C/C=C\C/C=C\C/C=C\C/C=C\CCC(=O)O [DHA, docosahexaenoic acid]",time of plasma Cmax,0.5 h
